According to paper PMC10117718:

Target: KhpB (E. faecalis V583) (E. faecalis V583 (endogenous in E. faecalis lysate))
Experiment: affinity purification with mass spectrometry; native KhpB immunoprecipitated from E. faecalis lysate (OD 2) with polyclonal anti-KhpB serum on protein A sepharose beads, 4°C, 2 h; lysis buffer 20 mM Tris/HCl pH 8.0, 150 mM KCl, 1 mM MgCl2, 1 mM DTT; preimmune sera as control; organic layer precipitated with methanol and analysed by LC-MS/MS

- binding: binds
B1: tryptophan–tRNA ligase (E. faecalis V583) (enzyme, UniProt Q830U2 1-336)
chain: MKTIFSGIQPSGTPTIGNYIGAMKQFIELQNEYNCYFCIVDEHAITVPQEPQKLRQQIRSLAALYLAVGLDPQKATIFIQSEVSAHAEAGWIIQCNTSIGELERMTQFKDKSQKNGRAGVSAGLLTYPPLMVGDIVLYNADLVPVGDDQKQHLELTRDFVERFNKRYAQKNQEILTIPEVKIAEQGSRIMSLQEPTKKMSKSDTNVKGFISMLDEPAVIRKKIRSAVTDSTGVIEYNKEEKPGITNLLNIYSAATGQTVEELVQAYEGKGYGDFKADLAEAVVALLEPIQVRYQELLASEELDMILDEGAENARLVANKTLQRMKNAVGLGRKVRR

These are yes or no findings as the source states them, for the method shown. In cells and extracts the contact can be indirect. These calls come from enrichment with a bait or labelling near it, and not all partners need be listed.
